Experimental data reported in patent US6310072A (priority 1995, dated 2001).

System: Dark Agouti rats
Set-up: species or system rat (Dark Agouti)
Details: rat, in vivo, sc

CN1CC[C@]23c4c5ccc(O)c4O[C@H]2[C@@H](O)C=C[C@H]3[C@H]1C5 [morphine]
Time to maximum antinociception (Tmax): 45 min
